Results deposited as PubChem BioAssay AID1159584 (Peter MacCallum Cancer Centre, 2016).

Assay: 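Genes whose loss is lethal only together with E-cadherin loss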 (primary screen)
System: human MCF10A breast epithelial cells, parental and CDH1-null
Reagents: siRNA against human genes
Measurement: 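ATP luminescence (CellTiter-Glo) viability per line relative to mean mock wells over all plates, and the ratio of CDH1-null to parental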
Reading the numbers: CDH1-null / parental viability ratio: higher = CDH1-null cells survive relatively better than parental; CDH1-null viability vs mock: higher = more viable CDH1-null cells
Units: CDH1-null viability vs mock in fraction of mock
Here is one part, drawn at random, of about 18,000 reagents tested. Further read-outs or replicates are left out here. The record does not give: the amount of reagent, the time to read-out.

CASK scored CDH1-null / parental viability ratio 0.92; CDH1-null viability vs mock 0.78. With knock-down of UBA7 the results were CDH1-null / parental viability ratio 1; CDH1-null viability vs mock 1.02. After knock-down of PPCS, the record shows CDH1-null / parental viability ratio 1.27; CDH1-null viability vs mock 1.04. With knock-down of SLC35B4, the record shows CDH1-null / parental viability ratio 0.97; CDH1-null viability vs mock 0.38. With knock-down of MANF, the screen gave CDH1-null / parental viability ratio 1.02; CDH1-null viability vs mock 0.86. For GPATCH2L the deposit lists CDH1-null / parental viability ratio 0.95; CDH1-null viability vs mock 0.54.

SLC17A3 scored CDH1-null / parental viability ratio 1.19; CDH1-null viability vs mock 0.74.

Ordered by “CDH1-null / parental viability ratio” (high to low): some entries from above
SLC17A3 → CDH1-null / parental viability ratio = 1.19; CDH1-null viability vs mock = 0.74
GPATCH2L → CDH1-null / parental viability ratio = 0.95; CDH1-null viability vs mock = 0.54

The listing continues.
SDC2 scored CDH1-null / parental viability ratio 1.25; CDH1-null viability vs mock 0.75. For SNX12, the values are CDH1-null / parental viability ratio 0.75; CDH1-null viability vs mock 0.5. Against KRTAP21-2 the deposit lists CDH1-null / parental viability ratio 0.78; CDH1-null viability vs mock 0.67. With knock-down of HYKK, the screen gave CDH1-null / parental viability ratio 1.04; CDH1-null viability vs mock 0.56. With knock-down of PYGM the results were CDH1-null / parental viability ratio 0.7; CDH1-null viability vs mock 0.62. AFG2A scored CDH1-null / parental viability ratio 0.85; CDH1-null viability vs mock 0.66.

ADCY8 gave CDH1-null / parental viability ratio 1.02; CDH1-null viability vs mock 0.94.
